These are yes or no findings as the source states them, for the method shown. Some binding calls cover weakened binding; strength is not graded here.
T1: rat growth hormone binding protein (rGHBP) (rat) (UniProt P16310)
T1 sequence (looked up): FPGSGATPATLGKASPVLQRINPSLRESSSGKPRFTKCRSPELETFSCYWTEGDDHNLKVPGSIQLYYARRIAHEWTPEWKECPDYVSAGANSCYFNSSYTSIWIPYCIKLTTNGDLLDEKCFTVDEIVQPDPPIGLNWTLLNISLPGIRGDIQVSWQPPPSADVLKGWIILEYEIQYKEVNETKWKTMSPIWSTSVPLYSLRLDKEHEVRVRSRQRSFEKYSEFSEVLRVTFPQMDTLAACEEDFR


Columns and labels:
[1] = target: T1, rat growth hormone binding protein (rGHBP) (rat); experiment: phage ELISA, 10^10 phage/well, rGHBP 100 ng/well
[2] = target: T1, rat growth hormone binding protein (rGHBP) (rat); experiment: phage ELISA competition on rGHBP (100 ng/well); synthetic peptide (with KK at the C-terminus) against H5 phage, 10^10/well
[3] = target: T1, rat growth hormone binding protein (rGHBP) (rat); experiment: BIAcore appKD
[4] = target: T1, rat growth hormone binding protein (rGHBP) (rat); experiment: ELISA, BIAcore and TRFD
[5] = target: T1, rat growth hormone binding protein (rGHBP) (rat); experiment: TRFD, rGHBP 100 ng/well, streptavidin-europium; background = pretreatment with >=100 fold excess GH
[6] = target: T1, rat growth hormone binding protein (rGHBP) (rat); experiment: TRFD
[7] = target: T1, rat growth hormone binding protein (rGHBP) (rat); experiment: BIAcore at one concentration and phage competition
[8] = target: T1, rat growth hormone binding protein (rGHBP) (rat); experiment: BIAcore and phage competition
[9] = target: T1, rat growth hormone binding protein (rGHBP) (rat); experiment: phage ELISA, confirmed by BIAcore
[10] = target: T1, rat growth hormone binding protein (rGHBP) (rat); experiment: phage ELISA competition
[11] = target: T1, rat growth hormone binding protein (rGHBP) (rat); experiment: phage ELISA
[12] = target: T1, rat growth hormone binding protein (rGHBP) (rat); experiment: phage ELISA on coated wells, anti-M13-HRP, OD405
[13] = target: T1, rat growth hormone binding protein (rGHBP) (rat); experiment: phage ELISA competition on rGHBP (100 ng/well); synthetic H5 peptide against H5 phage
[14] = target: T1, rat growth hormone binding protein (rGHBP) (rat); experiment: phage ELISA, 10^10 phage/well, recombinant rGHBP 100 ng/well
[15] = target: T1, rat growth hormone binding protein (rGHBP) (rat); experiment: phage ELISA on rGHBP-coated wells (100 ng/well); clones from panning of the secondary H5 library
[16] = target: T1, rat growth hormone binding protein (rGHBP) (rat); experiment: phage ELISA, clonal analysis, GHBP-coated wells

binding [1] | binding [2] | binding [4] | binding [7] | binding [11] | Binder | further results
– | binds | binds | binds | – | DYKDLCQRLGVGWPGWLAGWCA (biotinylated in the bP form (position not given)) [peptide #445] | –
– | binds | binds | – | – | DYKDLCQRLGVGWPGWLSGWCA (biotinylated in the bP form (position not given)) [peptide #447] | binding [8]: binds; binding [5]: binds; binding [6]: binds
– | – | – | binds | – | DYKDLCQSLGVGWPGWLAGWCA [peptide #436] | –

Second part, the binder before the results:

Binder | binding [1] | binding [2] | binding [4] | binding [7] | binding [11] | further results
AYKDLCQSLGVTYPGWLAGWCA [aYKD] | binds | – | – | – | – | –
DYKALCQSLGVTYPGWLAGWCA [DYKa] | binds | – | – | – | – | –
DYKDLCQSWQVTWPGWLAGWCA (biotinylated in the bP form (position not given)) [peptide #418] | – | binds | binds | – | – | binding [3]: binds; binding [5]: binds; binding [6]: binds
DYKDLCQSLGVTWPGWLAGWCA [peptide #432] | – | – | – | binds | – | –
DYKDLCQSLGVTYPGWLAGWCA (biotinylated in the BIAcore and TRFD formats (position not given)) [GHBP-H5 peptide (H5WT)] | binds | binds | binds | – | binds | binding [9]: binds; binding [3]: binds; binding [10]: binds; binding [12]: binds; binding [13]: binds; binding [14]: binds; binding [15]: binds
DYKDAQWWTTIGSNMFVLPGLRGCTFLPPMQCDREIRVFLVVVH [clone 13 peptide] | – | – | – | – | binds | binding [16]: binds
DYKDALLHRSRCVRWGKWVCCLPPVGVGGAQANQGMSVQRFRHC [clone HH peptide] | – | – | – | – | binds | binding [16]: binds

Source: US20060252697A1 (ANTYRA, published 2006)
